These are yes or no findings as the source states them, for the method shown. Binding seen in cells or lysates may run through a third protein. Some results given as binding are weak or reduced against the parent protein; the word gives no strength. Sequences can lack the tags named with a protein.

By UniProt entry, the sequences of proteins in these tests, tags left out.
UniProt Q11207: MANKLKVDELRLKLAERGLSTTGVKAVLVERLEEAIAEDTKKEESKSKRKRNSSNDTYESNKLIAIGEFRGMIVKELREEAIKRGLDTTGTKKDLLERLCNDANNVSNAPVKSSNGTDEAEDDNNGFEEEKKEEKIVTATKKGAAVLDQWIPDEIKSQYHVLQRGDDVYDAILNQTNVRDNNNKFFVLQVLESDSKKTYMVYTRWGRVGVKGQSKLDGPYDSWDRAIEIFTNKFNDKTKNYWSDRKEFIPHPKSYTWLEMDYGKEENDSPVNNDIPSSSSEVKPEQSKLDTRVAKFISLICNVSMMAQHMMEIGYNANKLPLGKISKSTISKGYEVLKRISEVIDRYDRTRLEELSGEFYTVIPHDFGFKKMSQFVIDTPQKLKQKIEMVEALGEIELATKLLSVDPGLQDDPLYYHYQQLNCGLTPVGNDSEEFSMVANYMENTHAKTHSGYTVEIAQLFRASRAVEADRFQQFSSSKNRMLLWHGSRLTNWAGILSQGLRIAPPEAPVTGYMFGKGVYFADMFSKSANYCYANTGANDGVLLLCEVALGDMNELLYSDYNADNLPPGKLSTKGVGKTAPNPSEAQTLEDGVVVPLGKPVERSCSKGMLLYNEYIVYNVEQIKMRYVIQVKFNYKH

Holding throughout (assay): co-IP; GFP- and myc-tagged proteins transiently co-expressed in N. benthamiana leaves; some samples infiltrated with 2 μg/ml bleomycin; extraction buffer 50 mM Tris-HCl pH 7.5, 150 mM NaCl, 5 mM EDTA, 0.2% Triton X-100, 10% glycerol; IP with anti-GFP at 4°C overnight, then protein A beads; blots with anti-myc and anti-GFP
Assay [1] concerns the target T1, Arabidopsis PARG1 (poly(ADP-ribose) glycohydrolase 1), GFP- or myc-tagged (Arabidopsis thaliana) (UniProt Q9SKB3).
T1 sequence: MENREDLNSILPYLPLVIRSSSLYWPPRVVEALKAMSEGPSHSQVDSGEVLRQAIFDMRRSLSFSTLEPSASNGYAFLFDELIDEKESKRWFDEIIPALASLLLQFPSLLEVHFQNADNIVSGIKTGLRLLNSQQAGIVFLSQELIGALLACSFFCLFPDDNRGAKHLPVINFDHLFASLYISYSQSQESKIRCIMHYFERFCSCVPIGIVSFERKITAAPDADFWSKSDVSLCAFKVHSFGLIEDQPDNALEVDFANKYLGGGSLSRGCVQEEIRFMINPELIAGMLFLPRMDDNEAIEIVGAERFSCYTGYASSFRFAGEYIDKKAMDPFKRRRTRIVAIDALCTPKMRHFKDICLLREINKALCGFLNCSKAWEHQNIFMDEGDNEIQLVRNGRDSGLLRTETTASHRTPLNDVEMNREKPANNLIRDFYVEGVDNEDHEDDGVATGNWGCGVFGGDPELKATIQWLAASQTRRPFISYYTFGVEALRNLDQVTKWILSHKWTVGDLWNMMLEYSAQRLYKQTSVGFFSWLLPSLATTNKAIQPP

Assay [2] addresses T2, Arabidopsis PARG2 (poly(ADP-ribose) glycohydrolase 2), GFP- or myc-tagged (Arabidopsis thaliana) (UniProt Q8VYA1).
T2 sequence: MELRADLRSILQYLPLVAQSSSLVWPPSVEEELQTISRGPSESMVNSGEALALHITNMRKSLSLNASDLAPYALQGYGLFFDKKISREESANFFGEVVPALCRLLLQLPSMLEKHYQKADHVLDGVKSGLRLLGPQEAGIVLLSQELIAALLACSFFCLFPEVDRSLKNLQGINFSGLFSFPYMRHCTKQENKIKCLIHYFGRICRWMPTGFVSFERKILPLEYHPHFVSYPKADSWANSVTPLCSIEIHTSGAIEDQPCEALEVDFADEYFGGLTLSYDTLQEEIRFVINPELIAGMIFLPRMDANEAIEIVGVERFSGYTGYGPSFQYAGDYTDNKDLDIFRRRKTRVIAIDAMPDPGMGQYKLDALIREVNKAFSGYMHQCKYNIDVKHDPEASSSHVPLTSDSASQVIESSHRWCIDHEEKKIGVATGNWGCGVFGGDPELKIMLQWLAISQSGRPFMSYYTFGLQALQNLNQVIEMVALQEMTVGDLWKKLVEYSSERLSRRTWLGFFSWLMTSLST

The target in assay [3] is GFP-tagged Arabidopsis PARP2 (At4g02390) (Arabidopsis thaliana) (UniProt Q11207).

Regarding “GFP-tagged Arabidopsis PARP2 (At4g02390) (from UniProt Q11207 1-637) (enzyme)”, the binding result in assay [1] and in assay [2] was “binds” each time.

B1: Arabidopsis PARG1 (poly(ADP-ribose) glycohydrolase 1), GFP- or myc-tagged (enzyme, UniProt Q9SKB3 1-548)
chain: T1 sequence
Take B1: the binding result in assay [2] is “binds”.

B2: myc-tagged Arabidopsis PARP1 (At2g31320) (enzyme, UniProt Q9ZP54 1-983)
chain: MASPHKPWRAEYAKSSRSSCKTCKSVINKENFRLGKLVQSTHFDGIMPMWNHASCILKKTKQIKSVDDVEGIESLRWEDQQKIRKYVESGAGSNTSTSTGTSTSSTANNAKLEYGIEVSQTSRAGCRKCSEKILKGEVRIFSKPEGPGNKGLMWHHAKCFLEMSSSTELESLSGWRSIPDSDQEALLPLVKKALPAAKTETAEARQTNSRAGTKRKNDSVDNEKSKLAKSSFDMSTSGALQPCSKEKEMEAQTKELWDLKDDLKKYVTSAELREMLEVNEQSTRGSELDLRDKCADGMMFGPLALCPMCSGHLSFSGGLYRCHGYISEWSKCSHSTLDPDRIKGKWKIPDETENQFLLKWNKSQKSVKPKRILRPVLSGETSQGQGSKDATDSSRSERLADLKVSIAGNTKERQPWKKRIEEAGAEFHANVKKGTSCLVVCGLTDIRDAEMRKARRMKVAIVREDYLVDCFKKQRKLPFDKYKIEDTSESLVTVKVKGRSAVHEASGLQEHCHILEDGNSIYNTTLSMSDLSTGINSYYILQIIQEDKGSDCYVFRKWGRVGNEKIGGNKVEEMSKSDAVHEFKRLFLEKTGNTWESWEQKTNFQKQPGKFLPLDIDYGVNKQVAKKEPFQTSSNLAPSLIELMKMLFDVETYRSAMMEFEINMSEMPLGKLSKHNIQKGFEALTEIQRLLTESDPQPTMKESLLVDASNRFFTMIPSIHPHIIRDEDDFKSKVKMLEALQDIEIASRIVGFDVDSTESLDDKYKKLHCDISPLPHDSEDYRLIEKYLNTTHAPTHTEWSLELEEVFALEREGEFDKYAPHREKLGNKMLLWHGSRLTNFVGILNQGLRIAPPEAPATGYMFGKGIYFADLVSKSAQYCYTCKKNPVGLMLLSEVALGEIHELTKAKYMDKPPRGKHSTKGLGKKVPQDSEFAKWRGDVTVPCGKPVSSKVKASELMYNEYIVYDTAQVKLQFLLKVRFKHKR
As for B2, the binding entry in assay [1], in assay [3] and in assay [2] was “binds” in each case.

Source of the values: publication PMC4423837.
